Measurements reported in the supplement of paper PMC4604168 (melanoma cell lines).
This is one part of the list. Single values are uncertain, as repeats are few or missing.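 Cells were imaged in 1,536-well plates, and nuclei stained with an antibody against cleaved PARP were counted against all DNA-stained nuclei to give the apoptosis fraction. Screening doses were chosen to leave most cells alive, and resting and induced cleaved-PARP levels differ strongly between cell lines.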

Tested on: LB2518-MEL
Assay: cleaved PARP positive nuclei fraction relative to DMSO control; melanoma cells; higher = more apoptosis
Details: library dose: low library concentration; 72 h

Row | SMILES | cleaved PARP positive nuclei fraction [%]
1 | CCCCCCCCc1ccc(CCC(N)(CO)CO)cc1 [fingolimod] + C#Cc1cccc(Nc2ncnc3cc(OCCOC)c(OCCOC)cc23)c1 [erlotinib] (first compound 2 µM, partner dose 0.8 µM) | 103
2 | C[C@]1(O)C[C@@H](c2nc(-c3ccc4ccc(-c5ccccc5)nc4c3)c3c(N)nccn32)C1 + O=C(O)[C@@H]1[O][Sb](=[O])([O][Sb]2(=[O])[O][C@H]([C@H](O)CO)[C@H](O)[C@H](C(=O)O)[O]2)[O][C@H]([C@H](O)CO)[C@@H]1O [stibogluconate] (first compound 0.4 µM, partner dose 2 µM) | 125
3 | CC1(C)CCC(c2ccc(Cl)cc2)=C(CN2CCN(c3ccc(C(=O)NS(=O)(=O)c4ccc(N[C@H](CCN5CCOCC5)CSc5ccccc5)c(S(=O)(=O)C(F)(F)F)c4)cc3)CC2)C1 + COc1ccc(Cl)c(Nc2nc3ccccc3nc2NS(=O)(=O)c2cccc(NC(=O)C(C)(C)N)c2)c1 [XL147] (first compound 0.4 µM, partner dose 0.8 µM) | 223
4 | CC(=O)O[C@@]12CO[C@@H]1C[C@H](O)[C@@]1(C)C(=O)[C@H](O)C3=C(C)[C@@H](OC(=O)[C@H](O)[C@@H](NC(=O)OC(C)(C)C)c4ccccc4)C[C@@](O)([C@@H](OC(=O)c4ccccc4)[C@H]21)C3(C)C [Docetaxel] + Cc1nc(Nc2ncc(C(=O)Nc3c(C)cccc3Cl)s2)cc(N2CCN(CCO)CC2)n1 [dasatanib] (first compound 0.0001 µM, partner dose 0.004 µM) | 69.9
